Results as given in ChEMBL document CHEMBL5338779, “Discovery, Synthesis, and In Vitro Characterization of 2,3 Derivatives of 4,5,6,7-Tetrahydro-Benzothiophene as Potent Modulators of Retinoic Acid Receptor-Related Orphan Receptor γt” (J Med Chem, 2023).
Values after ≈ are worked out from the molar mass of the structure shown.

Columns and labels:
[1] = physchem; settings: buffer, pH 7.4
[2] = physchem; settings: simulated gi fluid, pH 1.6
[3] = physchem; settings: buffer, pH 5

SMILES: O=C(Nc1sc2c(c1C(=O)N1CCN(Cc3ccccc3)CC1)CCCC2)c1ccccc1F
- solubility kinetic at 2 h [1]: 12.9 µM (≈ 6.14 µg/mL)
- solubility kinetic at 2 h [2]: 291 µM (≈ 139 µg/mL)
- solubility kinetic at 2 h [3]: 34 µM (≈ 16.2 µg/mL)
